According to PubChem BioAssay AID1487 (National Center for Advancing Translational Sciences (NCATS), 2009):
The other results are listed elsewhere or left out. Further columns of the screen follow, without active or inactive calls. The list favours compounds with an active or inconclusive main result. Words in brackets tell the shape of the fitted curve; partial curves, single points and poor fits give uncertain potencies.

Assay: qHTS Assay for Modulators of Lamin A Splicing
Details: HeLa LMNA splicing GFP/RFP minigene ratio, 48 h
Summary of the method: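 S3 HeLa stable clones carrying a lamin A-EGFP splicing minigene plus DsRed2 were seeded at 600 cells/well in Opti-MEM with 2% FBS, pin-dosed and incubated 48 h at 37°C. Acumen cytometry (488 nm) gave the GFP/RFP total-intensity ratio.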

[1] = measured here: GFP splicing reporter channel
[2] = measured here: RFP viability control channel

Row | SMILES | AC50 [1] | AC50 [2]
1 | COc1cc([N+](=O)[O-])c(C(=O)N2CCOCC2)c([N+](=O)[O-])c1 | 0.00891 µM [falling, full curve, poor fit] | –
2 | Cc1ccc(C(=O)/C=C\NCc2ccccc2)cc1 | 0.224 µM [rising, full curve, poor fit] | –
3 | Cc1cc(C(F)(F)F)nc(SCCN2CCOCC2)c1C#N | 0.00355 µM [rising, full curve] | 0.00355 µM [rising, full curve, poor fit]
4 | COc1cccc(CNC(=O)CCC2CCCN(C(=O)c3cccc(Cl)c3)C2)c1 (configuration not stated) | 5.62 µM [falling, full curve] | 6.31 µM [falling, full curve]
5 | O=C(Nc1ccc(N2CCOCC2)c(Cl)c1)c1cc(F)c(F)cc1Cl | – | 31.6 µM [rising, single point]
6 | Cc1ccc(C(=O)Nc2cc3ccccc3oc2=O)cc1 | 0.01 µM [falling, full curve, poor fit] | –
7 | O=[N+]([O-])c1cccc(S(=O)(=O)Nc2nc3ccccc3nc2Nc2cccc(S(=O)(=O)N3CCCCC3)c2)c1 | – | 2.51 µM [rising, single point]
8 | COc1ccc(Cc2nc(C(=O)Nc3ccc(Cl)cc3)cs2)cc1 | – | 14.1 µM [rising, partial curve]
9 | CN(Cc1ccco1)c1nc(-c2cccnc2)nc2ccccc12 | – | 35.5 µM [falling, single point]
10 | CCCc1nc2ccccc2c(C(=O)OCc2nnc(-c3cc(OC)c(OC)c(OC)c3)o2)c1CC | – | 22.4 µM [rising, single point]
11 | COc1ccc(NC(=O)c2ccccc2-c2ccccc2)cc1 | 0.631 µM [falling, full curve] | –
12 | Cc1cc(O)ccc1N=Cc1c(C(F)(F)F)[nH][nH]c1=O | 35.5 µM [falling, single point] | 35.5 µM [falling, single point]
13 | CC1(CC(=O)N/N=C/c2cc(Br)c(O)cc2O)OCCO1 | 10 µM [falling, partial curve, poor fit] | –
14 | CCOC(=O)c1sc(Nc2nc3c(OC)cccc3s2)nc1C | – | 14.1 µM [rising, partial curve]
15 | COc1ccc(NCc2cccn2-c2nnc(N3CCOCC3)s2)cc1OC | – | 2.51 µM [falling, full curve, poor fit]
16 | CCOC(=O)c1ccc(N=c2scc(C)n2CC)cc1 | 0.0355 µM [falling, full curve, poor fit] | –
17 | NC(=S)N/N=C/c1ccc(-c2cc(Cl)ccc2Cl)o1 | – | 8.91 µM [falling, partial curve, poor fit]
18 | COc1ccc(Nc2nc(-c3sc(NC(C)=O)nc3C)cs2)cc1 | – | 17.8 µM [falling, partial curve, poor fit]

Exported with tabs: 10 of the compounds above.
Row	SMILES	AC50 [1]	AC50 [2]
7	O=[N+]([O-])c1cccc(S(=O)(=O)Nc2nc3ccccc3nc2Nc2cccc(S(=O)(=O)N3CCCCC3)c2)c1	–	2.51 µM [rising, single point]
8	COc1ccc(Cc2nc(C(=O)Nc3ccc(Cl)cc3)cs2)cc1	–	14.1 µM [rising, partial curve]
9	CN(Cc1ccco1)c1nc(-c2cccnc2)nc2ccccc12	–	35.5 µM [falling, single point]
10	CCCc1nc2ccccc2c(C(=O)OCc2nnc(-c3cc(OC)c(OC)c(OC)c3)o2)c1CC	–	22.4 µM [rising, single point]
11	COc1ccc(NC(=O)c2ccccc2-c2ccccc2)cc1	0.631 µM [falling, full curve]	–
12	Cc1cc(O)ccc1N=Cc1c(C(F)(F)F)[nH][nH]c1=O	35.5 µM [falling, single point]	35.5 µM [falling, single point]
13	CC1(CC(=O)N/N=C/c2cc(Br)c(O)cc2O)OCCO1	10 µM [falling, partial curve, poor fit]	–
14	CCOC(=O)c1sc(Nc2nc3c(OC)cccc3s2)nc1C	–	14.1 µM [rising, partial curve]
15	COc1ccc(NCc2cccn2-c2nnc(N3CCOCC3)s2)cc1OC	–	2.51 µM [falling, full curve, poor fit]
16	CCOC(=O)c1ccc(N=c2scc(C)n2CC)cc1	0.0355 µM [falling, full curve, poor fit]	–

(further entries)

Row | SMILES | AC50 [1] | AC50 [2]
19 | O=S(=O)(c1cccc2nsnc12)N1CCN(c2ccccc2F)CC1 | 35.5 µM [falling, single point] | 35.5 µM [falling, partial curve, poor fit]
20 | O=C(Nc1nccs1)c1ccccn1 | 15.8 µM [rising, single point] | –
21 | CC(=O)Nc1ccc(S(=O)(=O)N2CCN(c3nc(NC4CCCC4)c4ccccc4n3)CC2)cc1 | 28.2 µM [falling, single point] | 35.5 µM [falling, single point]
22 | COc1ccc(S(=O)(=O)NCCc2sc(-c3cccnc3)nc2C)cc1OC | 6.31 µM [falling, single point] | –
23 | CCOc1nc(Nc2ccc(OC)c(Cl)c2)nc(OCC)n1 | 35.5 µM [rising, single point] | 31.6 µM [rising, single point]
24 | O=C(CSc1nc(-c2ccco2)cc(C(F)(F)F)n1)Nc1ccc(C(=O)N2CCCCC2)cc1 | – | 3.16 µM [rising, full curve]
25 | CN(CCCC(=O)Nc1ccncc1)S(=O)(=O)c1ccc(Cl)cc1 | 1.26 µM [rising, full curve] | 5.01 µM [rising, partial curve]
26 | O=C(O)c1ccc(-c2ccc(/C=C3\NC(=O)N(Cc4ccc(Cl)cc4)C3=O)o2)cc1Cl | 5.01 µM [falling, single point] | 2.82 µM [falling, partial curve, poor fit]
27 | COc1ccc(CCNC(=O)Cc2ccc(OCc3ccccc3)c(OC)c2[N+](=O)[O-])cc1OCc1ccccc1 | – | 11.2 µM [rising, partial curve]
28 | CCN(CC)C(=O)c1sc2c(c1C)c(=O)n(CCc1ccccc1)c(=O)n2Cc1ccc(C)cc1 | – | 31.6 µM [rising, single point]
29 | CCOc1cc2c(cc1OCC)C(CC(=O)OC)N(C(=O)Nc1cc(OC)ccc1OC)CC2 (configuration not stated) | – | 2.51 µM [falling, partial curve, poor fit]
30 | CCOC(=O)c1ccc(N)cc1 | 8.91 µM [rising, single point] | 7.94 µM [rising, partial curve, poor fit]
31 | CCOc1ccccc1CN1CCN(C2CCSCC2)CC1CCO (configuration not stated) | 10 µM [rising, partial curve, poor fit] | 20 µM [rising, partial curve, poor fit]
32 | COC(=O)c1ccc(N=Cc2c(C(F)(F)F)[nH]n(C)c2=O)cc1 | – | 0.794 µM [falling, partial curve, poor fit]
33 | Oc1ccc(Cn2ccnc2)c2cccnc12 | 6.31 µM [falling, partial curve] | 11.2 µM [falling, partial curve]
34 | COc1ccccc1Nc1nc(-c2ccccc2)nc2ccccc12 | 0.2 µM [rising, full curve, poor fit] | 5.62 µM [rising, partial curve, poor fit]
35 | NC(=O)c1cc[n+](CC2=C(C(=O)O)N3C(=O)[C@@H](NC(=O)[C@H](c4ccccc4)S(=O)(=O)[O-])[C@@H]3SC2)cc1 | – | 0.631 µM [falling, full curve, poor fit]
